Experimental data as given in publication PMC5476828.
Numbering of substitutions follows the chain as printed. No constants are given. Whether binding was seen depends on the method and setting. Binding seen in cells or lysates may run through a third protein. Some entries that bind do so weakly or less than the wild type. For some of these results: Where a sequence is shown, tags or fusion partners need not be part of it. Blank lines part the entries; values can stand above or below the molecule they belong to.

By UniProt entry, the sequences of proteins in these tests, tags left out. Where a name states a change or a piece, a line headed by the entry shows the natural chain unless it says otherwise. Chains listed by the source or under a name are the forms on record and can include a tag or linker. Residues count along the entry.
UniProt Q8TB45: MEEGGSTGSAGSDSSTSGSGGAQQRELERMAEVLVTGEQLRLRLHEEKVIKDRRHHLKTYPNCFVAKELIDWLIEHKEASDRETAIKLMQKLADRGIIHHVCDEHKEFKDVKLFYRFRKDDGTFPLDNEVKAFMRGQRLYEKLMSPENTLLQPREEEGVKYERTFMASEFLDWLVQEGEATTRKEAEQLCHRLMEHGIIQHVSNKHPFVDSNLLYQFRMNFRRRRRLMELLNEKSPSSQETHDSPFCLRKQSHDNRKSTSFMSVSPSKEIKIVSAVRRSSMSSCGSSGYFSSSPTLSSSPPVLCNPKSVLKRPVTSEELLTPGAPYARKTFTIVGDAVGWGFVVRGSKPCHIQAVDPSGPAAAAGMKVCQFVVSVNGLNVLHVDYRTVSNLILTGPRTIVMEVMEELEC
Flag-tagged DEPTOR PDZ domain: residues 330-407 of Q8TB45
UniProt Q570Y9: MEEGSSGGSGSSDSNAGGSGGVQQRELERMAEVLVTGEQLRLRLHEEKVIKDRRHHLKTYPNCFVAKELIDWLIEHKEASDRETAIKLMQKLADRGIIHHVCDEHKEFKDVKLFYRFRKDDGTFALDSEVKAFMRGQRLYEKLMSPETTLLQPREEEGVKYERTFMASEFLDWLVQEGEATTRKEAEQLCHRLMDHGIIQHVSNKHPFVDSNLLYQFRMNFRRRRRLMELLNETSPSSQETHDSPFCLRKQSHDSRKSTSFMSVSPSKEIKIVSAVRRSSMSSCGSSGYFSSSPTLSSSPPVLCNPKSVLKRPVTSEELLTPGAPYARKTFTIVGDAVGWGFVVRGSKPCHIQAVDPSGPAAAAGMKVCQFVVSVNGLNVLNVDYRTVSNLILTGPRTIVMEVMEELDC
UniProt Q9DCJ1: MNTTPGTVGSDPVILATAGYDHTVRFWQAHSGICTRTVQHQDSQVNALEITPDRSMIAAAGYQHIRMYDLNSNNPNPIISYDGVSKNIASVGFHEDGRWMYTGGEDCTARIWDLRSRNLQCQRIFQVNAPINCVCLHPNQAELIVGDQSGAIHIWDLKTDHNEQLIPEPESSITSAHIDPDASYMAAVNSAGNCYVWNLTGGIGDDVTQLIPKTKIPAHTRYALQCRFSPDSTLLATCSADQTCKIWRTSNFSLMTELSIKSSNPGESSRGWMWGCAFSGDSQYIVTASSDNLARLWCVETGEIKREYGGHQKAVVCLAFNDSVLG
UniProt Q8K4Q0: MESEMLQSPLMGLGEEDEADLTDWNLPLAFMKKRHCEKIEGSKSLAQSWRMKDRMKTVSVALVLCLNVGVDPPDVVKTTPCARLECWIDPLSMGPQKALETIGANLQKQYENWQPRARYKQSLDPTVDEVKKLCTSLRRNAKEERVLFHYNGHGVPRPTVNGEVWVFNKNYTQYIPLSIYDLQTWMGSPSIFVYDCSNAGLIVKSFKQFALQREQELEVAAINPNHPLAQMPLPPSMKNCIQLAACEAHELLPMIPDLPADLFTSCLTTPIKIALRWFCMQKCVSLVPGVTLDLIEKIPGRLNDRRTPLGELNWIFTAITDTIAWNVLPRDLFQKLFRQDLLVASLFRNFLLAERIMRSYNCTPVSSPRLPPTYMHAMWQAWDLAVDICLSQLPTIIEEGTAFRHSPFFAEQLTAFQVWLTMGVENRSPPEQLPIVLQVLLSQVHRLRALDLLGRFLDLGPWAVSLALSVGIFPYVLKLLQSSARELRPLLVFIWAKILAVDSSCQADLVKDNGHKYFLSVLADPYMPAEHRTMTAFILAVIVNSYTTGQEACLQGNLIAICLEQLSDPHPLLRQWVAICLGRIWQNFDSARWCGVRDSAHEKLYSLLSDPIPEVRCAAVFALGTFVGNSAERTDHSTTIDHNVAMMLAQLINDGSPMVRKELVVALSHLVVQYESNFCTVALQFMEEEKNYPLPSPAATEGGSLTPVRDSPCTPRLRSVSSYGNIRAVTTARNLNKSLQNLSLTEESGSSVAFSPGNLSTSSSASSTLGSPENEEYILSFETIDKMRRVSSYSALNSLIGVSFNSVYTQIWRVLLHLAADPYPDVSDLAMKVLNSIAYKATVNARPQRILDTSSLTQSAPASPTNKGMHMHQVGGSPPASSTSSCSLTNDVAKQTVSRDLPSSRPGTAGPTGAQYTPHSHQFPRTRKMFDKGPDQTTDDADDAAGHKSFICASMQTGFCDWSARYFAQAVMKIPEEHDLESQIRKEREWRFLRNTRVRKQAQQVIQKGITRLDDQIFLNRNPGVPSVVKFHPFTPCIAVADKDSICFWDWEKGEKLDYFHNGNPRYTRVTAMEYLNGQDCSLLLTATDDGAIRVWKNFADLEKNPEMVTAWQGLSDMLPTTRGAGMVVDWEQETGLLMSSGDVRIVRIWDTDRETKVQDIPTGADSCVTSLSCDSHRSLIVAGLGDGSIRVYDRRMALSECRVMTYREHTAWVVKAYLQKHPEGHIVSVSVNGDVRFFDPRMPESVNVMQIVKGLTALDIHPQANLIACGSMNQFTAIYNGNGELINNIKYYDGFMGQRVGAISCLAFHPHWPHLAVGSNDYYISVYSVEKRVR
UniProt Q6QI06: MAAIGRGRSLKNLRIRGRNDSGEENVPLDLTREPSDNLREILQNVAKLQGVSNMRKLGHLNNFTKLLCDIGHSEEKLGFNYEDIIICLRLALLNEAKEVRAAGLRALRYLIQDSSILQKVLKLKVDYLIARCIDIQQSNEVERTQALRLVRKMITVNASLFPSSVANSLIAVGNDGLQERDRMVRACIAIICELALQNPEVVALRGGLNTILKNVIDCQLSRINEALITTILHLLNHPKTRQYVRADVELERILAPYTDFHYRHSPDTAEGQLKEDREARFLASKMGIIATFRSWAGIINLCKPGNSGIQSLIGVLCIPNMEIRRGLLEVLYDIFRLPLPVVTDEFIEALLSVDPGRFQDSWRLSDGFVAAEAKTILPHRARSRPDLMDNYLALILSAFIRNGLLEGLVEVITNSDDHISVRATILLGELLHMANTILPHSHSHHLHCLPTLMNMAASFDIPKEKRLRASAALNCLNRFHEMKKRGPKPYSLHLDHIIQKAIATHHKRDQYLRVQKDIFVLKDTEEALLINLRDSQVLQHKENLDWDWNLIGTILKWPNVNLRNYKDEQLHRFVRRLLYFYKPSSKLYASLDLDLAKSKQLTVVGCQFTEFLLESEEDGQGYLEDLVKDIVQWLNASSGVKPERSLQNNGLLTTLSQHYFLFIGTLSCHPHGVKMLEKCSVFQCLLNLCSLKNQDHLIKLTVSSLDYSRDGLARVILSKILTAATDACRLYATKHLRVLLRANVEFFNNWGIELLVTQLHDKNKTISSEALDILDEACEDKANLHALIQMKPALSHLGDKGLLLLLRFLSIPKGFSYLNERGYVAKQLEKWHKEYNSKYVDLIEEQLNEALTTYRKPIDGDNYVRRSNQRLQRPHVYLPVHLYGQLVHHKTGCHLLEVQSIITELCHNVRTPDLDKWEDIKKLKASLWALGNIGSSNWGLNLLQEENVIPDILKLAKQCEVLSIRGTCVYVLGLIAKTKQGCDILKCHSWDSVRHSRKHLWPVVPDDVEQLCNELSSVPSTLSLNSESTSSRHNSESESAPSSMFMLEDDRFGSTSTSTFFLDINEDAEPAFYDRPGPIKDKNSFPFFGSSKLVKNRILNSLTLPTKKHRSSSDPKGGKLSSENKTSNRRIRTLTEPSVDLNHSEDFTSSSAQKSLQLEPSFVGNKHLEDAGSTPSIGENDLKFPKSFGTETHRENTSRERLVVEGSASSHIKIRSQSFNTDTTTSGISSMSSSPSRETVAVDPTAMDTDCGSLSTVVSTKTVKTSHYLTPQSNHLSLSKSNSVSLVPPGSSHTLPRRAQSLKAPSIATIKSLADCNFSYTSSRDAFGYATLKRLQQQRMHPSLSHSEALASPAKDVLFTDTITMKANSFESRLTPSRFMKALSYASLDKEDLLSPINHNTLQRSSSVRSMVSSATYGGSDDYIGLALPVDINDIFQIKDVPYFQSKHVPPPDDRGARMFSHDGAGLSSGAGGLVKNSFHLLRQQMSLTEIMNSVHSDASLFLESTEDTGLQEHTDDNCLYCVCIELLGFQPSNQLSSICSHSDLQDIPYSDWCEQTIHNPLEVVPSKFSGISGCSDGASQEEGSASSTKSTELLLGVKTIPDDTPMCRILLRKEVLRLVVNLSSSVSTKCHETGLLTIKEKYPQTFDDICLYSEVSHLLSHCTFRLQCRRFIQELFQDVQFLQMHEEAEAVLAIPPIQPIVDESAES
UniProt Q8BKH7: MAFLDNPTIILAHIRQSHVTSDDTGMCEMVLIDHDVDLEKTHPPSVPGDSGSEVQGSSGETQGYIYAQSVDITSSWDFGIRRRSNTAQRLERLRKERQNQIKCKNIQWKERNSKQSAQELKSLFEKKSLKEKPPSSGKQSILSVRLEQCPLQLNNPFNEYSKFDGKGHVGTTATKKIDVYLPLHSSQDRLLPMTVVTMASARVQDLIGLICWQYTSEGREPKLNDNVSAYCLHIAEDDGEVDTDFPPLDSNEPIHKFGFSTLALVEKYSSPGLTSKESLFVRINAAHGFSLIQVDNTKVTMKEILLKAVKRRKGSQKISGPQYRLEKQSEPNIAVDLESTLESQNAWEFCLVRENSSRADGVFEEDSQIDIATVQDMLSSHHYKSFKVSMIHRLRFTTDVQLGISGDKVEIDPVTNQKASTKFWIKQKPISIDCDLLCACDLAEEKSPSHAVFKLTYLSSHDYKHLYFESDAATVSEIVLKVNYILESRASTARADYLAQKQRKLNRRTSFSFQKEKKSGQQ

Assays:
[1] = target: T1, endogenous p38γ (mouse) (mouse (endogenous in MEF and heart)) (UniProt O08911); assay: co-IP; WT mouse heart extracts in Triton lysis buffer with 0.3% Chaps; 4 μg specific antibody (p38γ or p38δ) coupled to protein-G-Sepharose, overnight at 4 °C; beads washed four times; immunoblot
T1 sequence: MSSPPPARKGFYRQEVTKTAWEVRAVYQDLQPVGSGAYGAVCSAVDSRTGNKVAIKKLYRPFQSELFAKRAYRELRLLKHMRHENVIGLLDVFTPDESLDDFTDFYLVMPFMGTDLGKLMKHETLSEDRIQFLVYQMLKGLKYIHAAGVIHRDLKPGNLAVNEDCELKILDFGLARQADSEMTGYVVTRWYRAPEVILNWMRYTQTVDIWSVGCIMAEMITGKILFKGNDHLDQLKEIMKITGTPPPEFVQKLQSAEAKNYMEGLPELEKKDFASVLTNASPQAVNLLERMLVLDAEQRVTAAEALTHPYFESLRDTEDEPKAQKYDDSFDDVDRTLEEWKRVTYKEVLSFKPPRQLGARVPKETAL

[2] = target: T2, endogenous p38δ (mouse) (mouse (endogenous in MEF and heart)) (UniProt Q9Z1B7); assay: as above
T2 sequence: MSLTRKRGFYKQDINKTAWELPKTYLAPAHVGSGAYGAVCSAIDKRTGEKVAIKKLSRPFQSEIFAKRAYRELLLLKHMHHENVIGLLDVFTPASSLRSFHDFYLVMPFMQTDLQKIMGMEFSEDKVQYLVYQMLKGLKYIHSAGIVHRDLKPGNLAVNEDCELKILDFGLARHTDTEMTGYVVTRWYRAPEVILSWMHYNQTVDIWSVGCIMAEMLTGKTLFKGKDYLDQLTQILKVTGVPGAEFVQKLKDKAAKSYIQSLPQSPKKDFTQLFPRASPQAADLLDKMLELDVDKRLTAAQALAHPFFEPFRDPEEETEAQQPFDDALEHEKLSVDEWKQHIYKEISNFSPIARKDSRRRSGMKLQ

[3] = target: T3, p38δ active mutant F324S (human), expressed in mouse heart from AAV-TnT-p38δact (human) (UniProt O15264); assay: co-IP; p38δ immunoprecipitated from hearts of 9-week-old p38γ/δ−/− mice infected with AAV-TnT-p38γact and AAV-TnT-p38δact; immunoblot
T3 sequence: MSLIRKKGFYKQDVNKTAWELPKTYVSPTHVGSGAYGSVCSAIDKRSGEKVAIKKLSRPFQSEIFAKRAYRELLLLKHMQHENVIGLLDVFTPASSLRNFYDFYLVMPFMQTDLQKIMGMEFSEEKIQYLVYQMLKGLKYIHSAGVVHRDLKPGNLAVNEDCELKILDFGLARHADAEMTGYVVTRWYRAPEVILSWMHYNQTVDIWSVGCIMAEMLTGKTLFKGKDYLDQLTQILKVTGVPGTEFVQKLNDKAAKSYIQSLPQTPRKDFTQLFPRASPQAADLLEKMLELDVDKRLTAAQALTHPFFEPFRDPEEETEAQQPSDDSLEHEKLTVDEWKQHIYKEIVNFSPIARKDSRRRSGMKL

[4] = target: T1, endogenous p38γ (mouse) (mouse (endogenous in MEF and heart)); assay: co-IP; endogenous p38γ (or p38δ) immunoprecipitated with specific antibodies from WT and p38γ/δ−/− MEF lysates; immunoblot of immunoprecipitates
[5] = target: T2, endogenous p38δ (mouse) (mouse (endogenous in MEF and heart)); assay: as above
[6] = target: T2, endogenous p38δ (mouse) (mouse (endogenous in MEF and heart)); assay: co-IP; WT mouse heart extracts in Triton lysis buffer with 0.3% Chaps; 4 μg specific antibody (p38γ or p38δ) coupled to protein-G-Sepharose, overnight at 4 °C; beads washed four times; immunoblot; remark: listed apart in the source
[7] = target: Flag-tagged DEPTOR (human) (human) (UniProt Q8TB45); assay: co-IP; HEK-293 (HEK-293T) cells transfected with HA-p38γ or HA-p38δ, Flag-DEPTOR or its Flag-tagged domains and Myc-mTOR, alone or in combination; immunoprecipitation with anti-Flag or anti-c-myc; immunoblot
[8] = target: Flag-tagged DEPTOR PDZ domain (UniProt Q8TB45); assay: as above
[9] = target: T1, endogenous p38γ (mouse) (mouse (endogenous in MEF and heart)); assay: co-IP; WT mouse heart extracts in Triton lysis buffer with 0.3% Chaps; 4 μg specific antibody (p38γ or p38δ) coupled to protein-G-Sepharose, overnight at 4 °C; beads washed four times; immunoblot; remark: listed apart in the source
[10] = target: T4, endogenous p38γ (HEK-293T) (human (endogenous in HEK-293T)) (UniProt P53778); assay: co-IP; endogenous p38γ immunoprecipitated from HEK-293T cells transfected with HA-p38δ; immunoblot
T4 sequence: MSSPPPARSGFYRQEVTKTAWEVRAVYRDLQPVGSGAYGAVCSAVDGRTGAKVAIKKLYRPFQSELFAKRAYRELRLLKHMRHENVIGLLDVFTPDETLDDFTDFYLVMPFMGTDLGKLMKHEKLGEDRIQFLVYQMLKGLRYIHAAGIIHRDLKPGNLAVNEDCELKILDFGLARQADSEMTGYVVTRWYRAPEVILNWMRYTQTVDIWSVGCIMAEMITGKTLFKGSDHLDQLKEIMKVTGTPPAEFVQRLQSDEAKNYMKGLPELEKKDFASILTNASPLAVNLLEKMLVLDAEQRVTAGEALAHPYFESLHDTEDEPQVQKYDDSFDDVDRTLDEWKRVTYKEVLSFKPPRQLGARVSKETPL

binding [1]: binds | binding [2]: binds | binding [3]: binds | binding [4]: binds | binding [5]: binds
Molecule: endogenous DEPTOR (mouse) (from UniProt Q570Y9 1-409)

binding [1]: binds
Molecule: endogenous GβL (mouse) (from UniProt Q9DCJ1 1-326)

binding [1]: binds | binding [4]: binds
Molecule: endogenous Raptor (mouse) (from UniProt Q8K4Q0 1-1335)

binding [1]: binds | binding [4]: binds
Molecule: endogenous Rictor (mouse) (from UniProt Q6QI06 1-1708)

binding [1]: binds | binding [4]: binds
Molecule: endogenous Sin-1 (mouse) (from UniProt Q8BKH7 1-522)

binding [6]: binds
B1: endogenous p38γ (mouse) (protein, UniProt O08911 1-367)
chain: T1 sequence

binding [7]: binds | binding [8]: binds
B2: HA-tagged p38γ (human) (protein, UniProt P53778 1-367)
chain: T4 sequence

binding [9]: binds
B3: endogenous p38δ (mouse) (protein, UniProt Q9Z1B7 1-366)
chain: T2 sequence

binding [7]: binds | binding [8]: no binding | binding [10]: binds
B4: HA-tagged p38δ (human) (protein, UniProt O15264 1-365)
chain: T3 sequence with S324F
